Assay results from the supplement of paper PMC12823440, “Inhibitors supercharge kinase turnover through native proteolytic circuits” (Nature, 2025).
Structures can show the parent of a compound that is named as a salt. The list shows a part of the results. Hit calls seldom repeat between salt and free forms of one compound.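 In K562 cells expressing nanoluciferase-fused kinases, luminescence was recorded at 4 h intervals between 2 and 18 h, normalized as percent of control with DMSO at 100% and a positive control at 0%. A significant (2 sigma) signal drop marks a time point as decreased. The authors' rule for a hit is not shown and takes in more than the number of time points.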

By UniProt entry, the sequences of proteins in these tests, tags left out. Where a name states a change or a piece, a line headed by the entry shows the natural chain unless it says otherwise.
UniProt Q9UQM7, whole entry: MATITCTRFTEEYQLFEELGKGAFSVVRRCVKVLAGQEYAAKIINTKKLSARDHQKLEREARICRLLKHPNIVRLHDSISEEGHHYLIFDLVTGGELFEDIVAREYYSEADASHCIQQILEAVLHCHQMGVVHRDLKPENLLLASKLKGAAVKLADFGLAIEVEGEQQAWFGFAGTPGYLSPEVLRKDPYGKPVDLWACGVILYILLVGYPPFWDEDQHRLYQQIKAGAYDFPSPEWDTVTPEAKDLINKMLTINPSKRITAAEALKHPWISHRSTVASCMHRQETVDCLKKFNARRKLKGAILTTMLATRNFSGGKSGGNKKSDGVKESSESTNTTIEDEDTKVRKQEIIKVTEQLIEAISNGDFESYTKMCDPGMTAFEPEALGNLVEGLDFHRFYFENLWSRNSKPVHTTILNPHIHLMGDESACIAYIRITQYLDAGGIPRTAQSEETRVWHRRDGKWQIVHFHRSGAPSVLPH
UniProt Q13555: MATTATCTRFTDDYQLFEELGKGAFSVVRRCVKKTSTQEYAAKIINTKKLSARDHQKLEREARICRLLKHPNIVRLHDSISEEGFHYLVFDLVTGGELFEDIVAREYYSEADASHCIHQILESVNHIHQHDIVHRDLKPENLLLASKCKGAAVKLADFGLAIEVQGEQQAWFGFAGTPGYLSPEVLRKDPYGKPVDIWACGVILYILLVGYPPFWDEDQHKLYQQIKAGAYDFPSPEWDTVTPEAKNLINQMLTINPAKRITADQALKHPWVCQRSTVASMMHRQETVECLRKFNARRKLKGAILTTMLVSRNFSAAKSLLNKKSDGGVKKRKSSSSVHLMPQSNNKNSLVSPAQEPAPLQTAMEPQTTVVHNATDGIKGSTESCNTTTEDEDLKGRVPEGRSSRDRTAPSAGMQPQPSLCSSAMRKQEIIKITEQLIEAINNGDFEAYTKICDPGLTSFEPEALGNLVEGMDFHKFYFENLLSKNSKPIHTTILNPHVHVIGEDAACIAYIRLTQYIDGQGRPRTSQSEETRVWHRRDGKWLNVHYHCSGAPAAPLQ
UniProt Q15131: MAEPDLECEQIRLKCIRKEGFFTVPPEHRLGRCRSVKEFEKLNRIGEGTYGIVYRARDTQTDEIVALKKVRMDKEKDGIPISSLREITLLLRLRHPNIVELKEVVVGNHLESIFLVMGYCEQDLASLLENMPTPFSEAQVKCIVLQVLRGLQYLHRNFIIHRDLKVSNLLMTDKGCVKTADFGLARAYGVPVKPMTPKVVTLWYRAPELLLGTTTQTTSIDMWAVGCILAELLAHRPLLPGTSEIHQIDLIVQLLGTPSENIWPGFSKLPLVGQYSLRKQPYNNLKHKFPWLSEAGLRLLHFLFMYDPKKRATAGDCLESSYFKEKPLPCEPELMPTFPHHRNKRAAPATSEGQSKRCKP
UniProt Q00526: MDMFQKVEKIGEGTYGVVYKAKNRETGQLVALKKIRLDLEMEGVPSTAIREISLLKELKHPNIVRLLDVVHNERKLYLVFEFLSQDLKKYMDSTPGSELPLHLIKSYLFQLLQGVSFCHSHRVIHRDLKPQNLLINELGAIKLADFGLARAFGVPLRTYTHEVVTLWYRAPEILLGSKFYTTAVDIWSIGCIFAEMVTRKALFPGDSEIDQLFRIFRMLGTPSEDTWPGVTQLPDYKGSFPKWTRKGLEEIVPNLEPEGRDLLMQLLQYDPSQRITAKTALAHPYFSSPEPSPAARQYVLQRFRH
UniProt Q00535, whole entry, looked up: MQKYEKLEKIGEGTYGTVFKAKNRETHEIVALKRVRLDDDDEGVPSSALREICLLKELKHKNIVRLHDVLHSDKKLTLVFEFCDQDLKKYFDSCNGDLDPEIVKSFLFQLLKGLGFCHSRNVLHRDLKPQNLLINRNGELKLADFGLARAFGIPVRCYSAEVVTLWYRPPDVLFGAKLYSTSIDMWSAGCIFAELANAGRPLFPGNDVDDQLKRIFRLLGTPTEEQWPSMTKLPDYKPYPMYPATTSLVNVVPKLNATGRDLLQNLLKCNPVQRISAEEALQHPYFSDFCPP
UniProt Q00534, whole entry: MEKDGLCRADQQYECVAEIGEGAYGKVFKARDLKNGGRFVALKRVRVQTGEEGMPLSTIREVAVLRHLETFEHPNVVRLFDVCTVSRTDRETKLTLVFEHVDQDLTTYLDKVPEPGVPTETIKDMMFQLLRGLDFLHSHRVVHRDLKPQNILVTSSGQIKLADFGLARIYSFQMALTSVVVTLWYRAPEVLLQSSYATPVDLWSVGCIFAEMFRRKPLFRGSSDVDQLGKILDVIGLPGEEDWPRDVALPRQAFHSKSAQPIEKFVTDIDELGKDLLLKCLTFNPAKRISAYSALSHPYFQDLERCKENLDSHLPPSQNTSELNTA
UniProt O96017, whole entry: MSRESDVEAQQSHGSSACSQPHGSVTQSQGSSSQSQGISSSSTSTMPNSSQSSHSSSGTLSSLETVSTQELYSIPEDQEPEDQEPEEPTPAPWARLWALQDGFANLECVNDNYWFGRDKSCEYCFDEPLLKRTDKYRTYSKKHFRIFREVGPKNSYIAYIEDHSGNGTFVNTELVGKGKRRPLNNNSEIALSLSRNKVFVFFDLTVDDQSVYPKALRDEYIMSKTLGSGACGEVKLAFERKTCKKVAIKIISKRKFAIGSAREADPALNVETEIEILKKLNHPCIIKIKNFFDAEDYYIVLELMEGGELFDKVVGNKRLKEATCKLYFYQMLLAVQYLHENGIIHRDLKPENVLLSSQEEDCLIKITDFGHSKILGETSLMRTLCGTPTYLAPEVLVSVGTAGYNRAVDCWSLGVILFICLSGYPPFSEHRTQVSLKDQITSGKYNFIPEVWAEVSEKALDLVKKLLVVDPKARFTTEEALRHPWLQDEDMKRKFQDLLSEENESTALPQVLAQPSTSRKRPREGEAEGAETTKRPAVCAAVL
UniProt P07333, whole entry: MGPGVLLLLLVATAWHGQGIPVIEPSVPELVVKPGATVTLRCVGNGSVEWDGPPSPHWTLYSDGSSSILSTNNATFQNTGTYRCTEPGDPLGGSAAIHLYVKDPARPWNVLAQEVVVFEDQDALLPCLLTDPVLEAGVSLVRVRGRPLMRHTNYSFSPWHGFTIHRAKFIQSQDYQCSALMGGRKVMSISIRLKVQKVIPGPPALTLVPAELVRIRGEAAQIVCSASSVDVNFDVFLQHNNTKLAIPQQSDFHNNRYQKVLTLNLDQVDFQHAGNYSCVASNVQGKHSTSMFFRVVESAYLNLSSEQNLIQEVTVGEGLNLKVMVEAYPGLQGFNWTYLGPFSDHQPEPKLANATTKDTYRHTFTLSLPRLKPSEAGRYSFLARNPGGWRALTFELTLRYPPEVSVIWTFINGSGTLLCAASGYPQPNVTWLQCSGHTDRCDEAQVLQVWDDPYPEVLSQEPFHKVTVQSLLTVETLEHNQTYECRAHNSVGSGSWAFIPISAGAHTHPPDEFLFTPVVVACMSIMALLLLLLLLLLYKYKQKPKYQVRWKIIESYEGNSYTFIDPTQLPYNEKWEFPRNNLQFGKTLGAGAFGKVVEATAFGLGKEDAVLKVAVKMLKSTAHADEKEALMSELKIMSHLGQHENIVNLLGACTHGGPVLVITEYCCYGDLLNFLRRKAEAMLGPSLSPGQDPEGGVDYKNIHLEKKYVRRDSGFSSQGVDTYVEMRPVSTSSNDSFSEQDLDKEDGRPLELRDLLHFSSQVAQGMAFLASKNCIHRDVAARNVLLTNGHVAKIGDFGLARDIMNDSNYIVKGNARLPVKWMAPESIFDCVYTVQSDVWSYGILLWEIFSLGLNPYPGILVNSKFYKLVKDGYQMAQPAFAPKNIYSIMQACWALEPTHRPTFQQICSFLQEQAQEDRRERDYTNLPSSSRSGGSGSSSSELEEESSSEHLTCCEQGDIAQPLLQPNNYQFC
UniProt P41240: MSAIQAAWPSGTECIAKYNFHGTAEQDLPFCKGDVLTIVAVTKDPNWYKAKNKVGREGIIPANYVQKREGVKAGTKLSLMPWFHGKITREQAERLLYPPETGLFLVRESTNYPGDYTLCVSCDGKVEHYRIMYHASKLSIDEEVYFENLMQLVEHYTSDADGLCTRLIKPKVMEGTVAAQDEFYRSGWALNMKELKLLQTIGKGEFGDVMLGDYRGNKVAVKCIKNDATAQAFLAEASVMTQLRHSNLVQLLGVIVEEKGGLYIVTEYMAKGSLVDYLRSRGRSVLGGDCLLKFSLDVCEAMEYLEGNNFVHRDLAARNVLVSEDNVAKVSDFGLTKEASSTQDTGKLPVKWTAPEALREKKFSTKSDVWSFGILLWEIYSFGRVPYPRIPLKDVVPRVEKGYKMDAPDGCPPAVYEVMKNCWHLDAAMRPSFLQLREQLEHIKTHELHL

Experiments:
Assay in all cases: number of time points (of 5) at which kinase-Nluc abundance scored as decreased, DMSO-normalised (count); higher = more persistent destabilization
Conditions in all cases: K562; 2-18 h
[1] = target: CAMK2A (UniProt Q9UQM7)
[2] = target: CAMK2G (UniProt Q13555)
[3] = target: CDK10 (UniProt Q15131)
[4] = target: CDK2 (UniProt P24941)
[5] = target: CDK3 (UniProt Q00526)
[6] = target: CDK5 (UniProt Q00535)
[7] = target: CDK6 (UniProt Q00534)
[8] = target: CHEK2 (UniProt O96017)
[9] = target: CSF1R (UniProt P07333)
[10] = target: CSK (UniProt P41240)

Measured: number of time points

C[C@@H]1CN(CC(=O)Nc2ccc3c(c2)Cc2cccc(-c4cc(=O)cc(N5CCOCC5)o4)c2S3)C[C@H](C)O1 (2.5 µM)
0: [1] | [2] | [3] | [4] | [5] | [6] | [7] | [8] | [9] | [10]

O=C(N=c1sccn1Cc1ccccc1)c1c[nH]c2ncccc12 (10 µM)
0: [1] | [2] | [3] | [4] | [5] | [6] | [7] | [8] | [9] | [10]

O=S(=O)(N=Cc1c(O)ccc2ccccc12)c1cccs1 (10 µM)
0: [1] | [2] | [3] | [4] | [5] | [6] | [7] | [8] | [9] | [10]

C=C[C@H]1[C@H](O[C@@H]2O[C@H](CO)[C@@H](O)[C@H](O)[C@H]2O)OC=C(C(=O)OC)[C@H]1CCOC(=O)c1cc(O)c(O)c(O)c1 [Cornuside] (10 µM)
0: [1] | [2] | [3] | [4] | [5] | [6] | [7] | [8] | [9] | [10]

O=C(O)/C=C/c1cc(Br)c(Br)c(Br)c1Br (10 µM)
0: [1] | [2] | [3] | [4] | [5] | [6] | [7] | [8] | [9] | [10]

Cc1c(Br)c(Br)c2c3c1nc(N1CCNCC1)n3CCC2 [SEL120-34A (monohydrochloride)] (2.5 µM)
0: [1] | [2] | [3] | [4] | [5] | [6] | [7] | [8] | [9] | [10]

COc1ccc(S(=O)(=O)N(CCO)c2ccccc2CN(C)CC=Cc2ccc(Cl)cc2)cc1 (2.5 µM)
0: [1] | [2] | [3] | [4] | [5] | [6] | [7] | [8] | [9] | [10]

CN(C)C(=O)c1cc2cnc(Nc3ccc(NC(=O)C4(C(=O)Nc5ccc(F)cc5)CC4)cc3)nc2n1C1CCCC1 (2 µM)
3: [4] | [5]
0: [1] | [2] | [3] | [6] | [7] | [8] | [9] | [10]

COC[C@H]1Cn2cc(-c3nc(Nc4ccnn4C)ncc3C)nc2C(=O)N1Cc1ccc(F)c(F)c1 (10 µM)
0: [1] | [2] | [3] | [4] | [5] | [6] | [7] | [8] | [9] | [10]

Cc1ccc(-c2csc(Cn3nc(CC4OCCCO4)c4ccccc4c3=O)n2)cc1 (10 µM)
0: [1] | [2] | [3] | [4] | [5] | [6] | [7] | [8] | [9] | [10]

CCCC[C@H](CO)Nc1nc(NC)ncc1OC [Interferon receptor inducer-1] (10 µM)
0: [1] | [2] | [3] | [4] | [5] | [6] | [7] | [8] | [9] | [10]

Cc1ccc(CNC(=O)N2CCC[C@]3(CCN(Cc4ccc(Cl)c(Cl)c4)C3)C2)cc1 (10 µM)
0: [1] | [2] | [3] | [4] | [5] | [6] | [7] | [8] | [9] | [10]

C=CCN(/C=C1/C(=O)O[C@H](COC)[C@@]2(C)C1=C(O)C(=O)C1=C2[C@H](OC(C)=O)C[C@]2(C)C(=O)CC[C@@H]12)CC=C [Sonolisib] (2.5 µM)
0: [1] | [2] | [3] | [4] | [5] | [6] | [7] | [8] | [9] | [10]

N#Cc1cn([C@@H]2O[C@H](CO)[C@@H](O)[C@H]2O)c2nc[nH]c(=O)c12 [Jaspamycin] (10 µM)
0: [1] | [2] | [3] | [4] | [5] | [6] | [7] | [8] | [9] | [10]

O=C(Nc1nccs1)C(c1cc(F)ccc1O)N1Cc2ccccc2C1=O (stereo not given) (10 µM)
0: [1] | [2] | [3] | [4] | [5] | [6] | [7] | [8] | [9] | [10]

O=C(Nc1ncc(SCCN2CCCC2)s1)[C@]1(c2ccc(S(=O)(=O)C3CC3)cc2)C[C@H]1C1CCCCC1 [Globalagliatin] (2.5 µM)
0: [1] | [2] | [3] | [4] | [5] | [6] | [7] | [8] | [9] | [10]

C=CC(=O)N1CCN(c2nc(OC[C@@H]3CCCN3C)nc3c2CCN(c2cccc4cccc(C)c24)C3)C[C@@H]1CC#N (2.5 µM)
0: [1] | [2] | [3] | [4] | [5] | [6] | [7] | [8] | [9] | [10]

Oc1ccc2ccccc2c1SSc1c(O)ccc2ccccc12 (10 µM)
0: [1] | [2] | [3] | [4] | [5] | [6] | [7] | [8] | [9] | [10]

OCCC#Cc1nc(-c2ccc(F)cc2)c(-c2ccncc2)n1CCCc1ccccc1 (2.5 µM)
0: [1] | [2] | [3] | [4] | [5] | [6] | [7] | [8] | [9] | [10]

Clc1ccc(Nc2cccc(-c3cn[nH]c3)c2)cc1 (10 µM)
0: [1] | [2] | [3] | [4] | [5] | [6] | [7] | [8] | [9] | [10]

Reprinted from the entries so far (two entries):
COC[C@H]1Cn2cc(-c3nc(Nc4ccnn4C)ncc3C)nc2C(=O)N1Cc1ccc(F)c(F)c1 (10 µM)
0: [1] | [2] | [3] | [4] | [5] | [6] | [7] | [8] | [9] | [10]

Cc1ccc(-c2csc(Cn3nc(CC4OCCCO4)c4ccccc4c3=O)n2)cc1 (10 µM)
0: [1] | [2] | [3] | [4] | [5] | [6] | [7] | [8] | [9] | [10]

Further compounds:

Cc1cc(=O)[nH]c(=S)[nH]1 [Methylthiouracil] (10 µM)
0: [1] | [2] | [3] | [4] | [5] | [6] | [7] | [8] | [9] | [10]

NC(=O)c1ccc2nc(-c3ccc(C4(N)CCC4)cc3)c(-c3ccccc3)n2n1 (10 µM)
0: [1] | [2] | [3] | [4] | [5] | [6] | [7] | [8] | [9] | [10]

CC(=O)NCC(=O)N[C@@H](C)C(=O)N[C@@H](CCC(N)=O)C(=O)N[C@@H](Cc1ccccc1)C(=O)N[C@@H](CO)C(=O)N[C@@H](CCCCN)C(=O)N[C@H](C(=O)N[C@@H](C)C(=O)N[C@@H](C)C(=O)N[C@@H](CCCCN)C(=O)O)[C@@H](C)O (10 µM)
0: [1] | [2] | [3] | [4] | [5] | [6] | [7] | [8] | [9] | [10]

CNCCOc1ccccc1C(C)(C)Nc1nccn(-c2cc(C(=O)NC3CC3)ccc2C)c1=O [p38α inhibitor 2] (10 µM)
0: [1] | [2] | [3] | [4] | [5] | [6] | [7] | [8] | [9] | [10]

O=C1NC(=O)C(c2ccccc2[N+](=O)[O-])=C1Nc1ccc(O)c(Cl)c1 (10 µM)
0: [1] | [2] | [3] | [4] | [5] | [6] | [7] | [8] | [9] | [10]

COc1cc2nccc(Oc3ccc(NC(=O)Nc4ccc(F)cc4F)c(F)c3)c2cc1OC (10 µM)
0: [1] | [3] | [4] | [5] | [6] | [8] | [10]
3: [7] | [9]
2: [2]

CC(C)(C)S(=O)(=O)c1ccc2nccc(Nc3n[nH]c4ccc(F)cc34)c2c1 (10 µM)
0: [1] | [2] | [3] | [4] | [5] | [6] | [7] | [8] | [9] | [10]

CCC(=O)N1CC[C@H](Nc2ncnc3c2CN(c2cnc(OC)c(C(F)(F)F)c2)CC3)C1 [Leniolisib] (10 µM)
0: [1] | [2] | [3] | [4] | [5] | [6] | [7] | [8] | [9] | [10]

Cc1cc([N+](=O)[O-])c(NS(=O)(=O)c2cccc(C(=O)O)c2)cc1-c1cccnc1 [Alofanib] (10 µM)
0: [1] | [2] | [3] | [4] | [5] | [6] | [7] | [8] | [9] | [10]

CN(C)CCCNc1ccn2ncc(-c3ccc4c(c3)OCO4)c2n1 (10 µM)
0: [1] | [2] | [3] | [4] | [5] | [6] | [7] | [8] | [9] | [10]

Cc1cc(/C=C2\CC/C(=C\c3cc(C)c(O)c(C)c3)C2=O)cc(C)c1O [Pentagamavunon-1] (2.5 µM)
0: [1] | [2] | [3] | [4] | [5] | [6] | [7] | [8] | [9] | [10]

COc1cccc2cc(-c3nc([C@H]4CC[C@H](C(=O)O)CC4)n4ncnc(N)c34)[nH]c12 (2.5 µM)
3: [9]
0: [1] | [2] | [3] | [4] | [5] | [6] | [7] | [8] | [10]

COc1ccc2c(c1)C[C@H](C(=O)Nc1ccc(-c3cn[nH]c3)cc1OCCN(C)C)CO2 [Chroman 1] (10 µM)
0: [1] | [2] | [3] | [4] | [5] | [6] | [7] | [8] | [9] | [10]

C1=N/C2=N/c3ccc(OCCN4CCCC4)c(c3)COC/C=C/COCc3cccc(c3)C(=C1)N2 [Pacritinib] (2.5 µM)
0: [1] | [2] | [3] | [4] | [5] | [6] | [7] | [8] | [9] | [10]

Cn1c(=O)c(Oc2ccc(F)cc2F)cc2cnc(NC(CCO)CCO)nc21 [Pamapimod] (10 µM)
0: [1] | [2] | [3] | [4] | [5] | [6] | [7] | [8] | [9] | [10]

C[C@]1(O)C[C@@](N)(c2ccc(-c3nc4n(c3-c3ccccc3)COc3ccncc3-4)cc2)C1 [TAS-117 (hydrochloride)] (10 µM)
0: [1] | [2] | [3] | [4] | [5] | [6] | [7] | [8] | [9] | [10]
